{"source": "patent US20130345397", "about": "(published 2013)", "key": {"[1]": {"test": "general procedure: Fmoc solid-phase peptide synthesis; HATU-DIPEA", "conditions": "whole synthesis; for crude HPLC purity / final HPLC purity: RP-HPLC (Agilent, Vydac C18 analytical column)"}, "[2]": {"test": "general procedure: Fmoc solid-phase peptide synthesis; Rink Amide resin; HATU-DIPEA", "conditions": "whole synthesis, RP-HPLC (Agilent, Vydac C18 analytical column), scale 100 umol"}, "[3]": {"test": "general procedure: Fmoc solid-phase peptide synthesis; Fmoc-Asn(Trt)-PEG-PS; HATU-DIPEA", "conditions": "whole synthesis, RP-HPLC (Agilent, Vydac C18 analytical column), scale 0.20 mmol"}, "[4]": {"test": "general procedure: Fmoc solid-phase peptide synthesis; Wang resin; HATU-DIPEA", "conditions": "whole synthesis, RP-HPLC (Agilent, Vydac C18 analytical column), scale 200 umol"}, "[5]": {"test": "general procedure: Fmoc solid-phase peptide synthesis; Fmoc-Gly-Wang resin; HATU-DIPEA", "conditions": "whole synthesis, RP-HPLC (Agilent, Vydac C18 analytical column), scale 200 umol"}, "[6]": {"test": "general procedure: Fmoc solid-phase peptide synthesis; Fmoc-Gly-PEG-PS resin; HATU-DIPEA", "conditions": "whole synthesis, RP-HPLC (Agilent, Vydac C18 analytical column), scale 200 umol"}, "[7]": {"test": "general procedure: Fmoc solid-phase peptide synthesis; Fmoc-Asp(OtBu)-Wang resin; HATU-DIPEA", "conditions": "whole synthesis, RP-HPLC (Agilent, Vydac C18 analytical column), scale 100 umol"}}, "data": [{"substance": "AgI-API-AgI-SR-c[Das-API]-SRG", "values": [{"measurement": "crude HPLC purity", "setting": "[1]", "value": 75, "unit": "%"}]}, {"substance": "desA1-5-[A6,11]-Agl-[A7]-Cys(^tBu)-[A20]-Cys(Acm)-[A21]-β-Asn Human Insulin A-Chain", "values": [{"measurement": "crude HPLC purity", "setting": "[2]", "value": 85, "unit": "%"}]}, {"substance": "c[Das-API]-SR-c[Das-API]-SR-c[Das-API]-SRG", "values": [{"measurement": "isolated yield", "setting": "[1]", "value": 2, "unit": "%"}, {"measurement": "final HPLC purity", "setting": "[1]", "value": 90, "unit": "%"}]}, {"substance": "AgI-API-Nva-SLG", "values": [{"measurement": "crude HPLC purity", "setting": "[1]", "value": 94, "unit": "%"}]}, {"substance": "AgI-SL-AgI-API-Nva-SLG", "values": [{"measurement": "crude HPLC purity", "setting": "[1]", "value": 90, "unit": "%"}]}, {"substance": "desm-5-[A6,11]-Agl-[A7]-Cys(^tBu)-[A20]-Cys(Acm) Insulin A-chain", "values": [{"measurement": "crude HPLC purity", "setting": "[3]", "value": 80, "unit": "%"}]}, {"substance": "AgI-API-AgI-SL-c[Das-API]-SL-c[Das-API]-SLG", "values": [{"measurement": "crude HPLC purity", "setting": "[4]", "value": 71, "unit": "%"}]}, {"substance": "AgI-API-AgI-SR-c[Das-API]-SR-c[Das-API]-SRG", "values": [{"measurement": "crude HPLC purity", "setting": "[1]", "value": 60, "unit": "%"}]}, {"substance": "Agl-API-Agl-SLG", "values": [{"measurement": "crude HPLC purity", "setting": "[5]", "value": 92, "unit": "%"}]}, {"substance": "c[Das-API]-SL-c[Das-API]-SL-c[Das-API]-SLG", "values": [{"measurement": "isolated yield", "setting": "[1]", "value": 3, "unit": "%"}, {"measurement": "final HPLC purity", "setting": "[1]", "value": ">99", "unit": "%"}]}, {"substance": "desA1-5-[A6,11]-Agl-[A7]-Cys(^tBu)-[A20]-Cys(Acm) Human Insulin Glargine A-chain", "values": [{"measurement": "crude HPLC purity", "setting": "[6]", "value": 70, "unit": "%"}]}, {"substance": "AgI-API-AgI-SL-c[Das-API]-SLG", "values": [{"measurement": "crude HPLC purity", "setting": "[4]", "value": 89, "unit": "%"}]}, {"substance": "desA1-5-[A6,11]-Agl-[A7]-Cys(^tBu)-[A20]-Cys(Acm)-[A21]-Asp Human Insulin A-Chain", "values": [{"measurement": "crude HPLC purity", "setting": "[7]", "value": 70, "unit": "%"}]}]}
